Results deposited as PubChem BioAssay AID1259308 (NCATS, 2017)
This is one part, drawn at random, of about 59,000 deposited reagents. About 1,510 of all reagents (2.6%) count as active. 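Calls use total luciferase alone and ignore viability, so some active siRNAs may act by altering cell number.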 The numbers tell different reagents against one gene apart. Not all columns of the deposit are shown.

- Aim: 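Candidate targets for better recombinant protein yield in mammalian cells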 (primary screen)
- System: human HEK293 embryonic kidney cells stably expressing firefly luciferase (HEK-CMV-Luc2-Hygro)
- Reagent: single siRNA against human genes, 0.8 pmol siRNA per well
- Duration: 72 h
- Read-out: 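Luciferase light (ONE-Glo) measured on one replicate plate set and viability (CellTiter-Glo) on the other, scaled to a negative control siRNA, with robust z-scores and luciferase per cell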
- Direction: total luciferase, z-score: higher = more reporter protein produced
- Active means: 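Active when the median/MAD z-score for overall luciferase is greater than 3; a gene was taken forward for validation with new siRNAs if at least two of its three siRNAs passed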
- Calls: active = raised luciferase; inactive = no rise

With knock-down of OR10G8 (GeneID 219869) #1 the results were total luciferase, z-score -0.315; inactive.
With knock-down of OR10G8 (GeneID 219869) #2, the screen gave total luciferase, z-score -0.0365; inactive.
Silencing of OR10G8 (GeneID 219869) #3 gave: total luciferase, z-score 0.341; inactive.
Silencing of ASGR2 (GeneID 433) #1 came out at: total luciferase, z-score -0.795; inactive.
Against ASGR2 (GeneID 433) #2, the entry reads total luciferase, z-score 0.675; inactive.
ASGR2 (GeneID 433) #3 scored total luciferase, z-score -0.613; inactive.
CCDC3 (GeneID 83643) #1 scored total luciferase, z-score -0.169; inactive.
Against CCDC3 (GeneID 83643) #2, the values are total luciferase, z-score 0.917; inactive.
CCDC3 (GeneID 83643) #3 showed total luciferase, z-score -0.0906; inactive.
CCDC85A (GeneID 114800) #1 scored total luciferase, z-score 1.26; inactive.
For CCDC85A (GeneID 114800) #2, the entry reads total luciferase, z-score -0.214; inactive.
For CCDC85A (GeneID 114800) #3 the deposit lists total luciferase, z-score 0.491; inactive.

In a second layout: 4 of the entries above.
OR10G8 (GeneID 219869) #1
- total luciferase, z-score: -0.315
- activity call: inactive

OR10G8 (GeneID 219869) #2
- total luciferase, z-score: -0.0365
- activity call: inactive

OR10G8 (GeneID 219869) #3
- total luciferase, z-score: 0.341
- activity call: inactive

ASGR2 (GeneID 433) #1
- total luciferase, z-score: -0.795
- activity call: inactive

More entries:
Depletion of CNR1 (GeneID 1268) #1 came out at: total luciferase, z-score 0.878; inactive.
Against CNR1 (GeneID 1268) #2 the deposit lists total luciferase, z-score -0.164; inactive.
Against CNR1 (GeneID 1268) #3, the values are total luciferase, z-score 1.26; inactive.
Against SSX1 (GeneID 6756) #1, the values are total luciferase, z-score -1.11; inactive.
For SSX1 (GeneID 6756) #2 the deposit lists total luciferase, z-score 1.93; inactive.
Against SSX1 (GeneID 6756) #3 the deposit lists total luciferase, z-score -2.1; inactive.
KCTD10 (GeneID 83892) #1 showed total luciferase, z-score 1.93; inactive.
KCTD10 (GeneID 83892) #2 scored total luciferase, z-score -0.276; inactive.
Against KCTD10 (GeneID 83892) #3, the values are total luciferase, z-score 0.0315; inactive.
Silencing of RMND1 (GeneID 55005) #1 gave: total luciferase, z-score 0.793; inactive.
RMND1 (GeneID 55005) #2 gave total luciferase, z-score 2.42; inactive.
After knock-down of RMND1 (GeneID 55005) #3, the record shows total luciferase, z-score -1.8; inactive.
Against WDR3 (GeneID 10885) #1, the entry reads total luciferase, z-score 2.11; inactive.
For WDR3 (GeneID 10885) #2 the deposit lists total luciferase, z-score -1.57; inactive.
For WDR3 (GeneID 10885) #3, the values are total luciferase, z-score -0.063; inactive.
Against MIMS2 (GeneID 116151) #1 the deposit lists total luciferase, z-score 1.61; inactive.
Knock-down of MIMS2 (GeneID 116151) #2 came out at: total luciferase, z-score -0.941; inactive.
With knock-down of MIMS2 (GeneID 116151) #3, the screen gave total luciferase, z-score -0.183; inactive.
For SLC9A6 (GeneID 10479) #1 the deposit lists total luciferase, z-score -0.712; inactive.
For SLC9A6 (GeneID 10479) #2, the values are total luciferase, z-score -0.465; inactive.
Against SLC9A6 (GeneID 10479) #3, the values are total luciferase, z-score 0.0609; inactive.
